The supplement of paper PMC6078165
± gives the standard deviation of the averaged measurements. Values are relative to the signal before dosing, not to a vehicle control; the signal also falls without drug.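 The cancer cells are triple-negative breast cancer lines of basal-like or mesenchymal-like type, grown without fibroblasts. A drop in red signal reflects loss of mitochondrial integrity, a stand-in for apoptotic death.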

Tests used:
HCC1143 = assay: relative JC-1 red fluorescence (viability) vs pre-drug, monoculture (fraction); higher = more viable cancer cells; conditions: coculture fibroblast: none (monoculture)
Procedure: (§1)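 JC-1 labelled TNBC cells grown in monoculture (density kept equal with unlabelled cancer cells) in 384-well plates in FluoroBrite medium, treated with one of 42 anticancer drugs at 0.1, 1, 10 or 100 uM. JC-1 red fluorescence (mitochondrial integrity, surrogate of apoptotic death) was read by plate reader every 8 h for 72 h. Values are normalised to each well's pre-drug value, with background from alamethicin. The stock of one drug was tenfold lower, so its dose labels may be too high. Monoculture values are repeated alongside each fibroblast plate and are averaged here.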

Hs578T = assay: as above; conditions: coculture fibroblast: none (monoculture)
Procedure: as §1

COc1cc([C@@H]2c3cc4c(cc3[C@@H](O[C@@H]3O[C@@H]5CO[C@@H](C)O[C@H]5[C@H](O)[C@H]3O)[C@H]3COC(=O)[C@H]23)OCO4)cc(OC)c1O [Etoposide]
relative JC-1 red fluorescence
Conditions | 8 h | 16 h | 24 h | 32 h | 40 h | 48 h | 56 h | 64 h | 72 h
HCC1143, 0.1 µM | 0.8684 ± 0.002 | 0.7632 ± 0.0074 | 0.691 ± 0.015 | 0.623 ± 0.02 | 0.569 ± 0.034 | 0.536 ± 0.039 | 0.511 ± 0.045 | 0.497 ± 0.055 | 0.48 ± 0.06
HCC1143, 1 µM | 0.843 ± 0.011 | 0.762 ± 0.0076 | 0.7085 ± 0.0042 | 0.647 ± 0.0074 | 0.5942 ± 0.00071 | 0.557 ± 0.0069 | 0.5257 ± 0.0044 | 0.507 ± 0.0093 | 0.486 ± 0.01
HCC1143, 10 µM | 0.896 ± 0.052 | 0.82 ± 0.044 | 0.778 ± 0.062 | 0.735 ± 0.076 | 0.706 ± 0.084 | 0.69 ± 0.077 | 0.672 ± 0.079 | 0.662 ± 0.083 | 0.641 ± 0.077
HCC1143, 100 µM | 0.8823 ± 0.0013 | 0.8016 ± 0.0011 | 0.726 ± 0.026 | 0.672 ± 0.048 | 0.626 ± 0.058 | 0.579 ± 0.068 | 0.554 ± 0.084 | 0.523 ± 0.079 | 0.499 ± 0.084
Hs578T, 0.1 µM | 0.83 ± 0.049 | 0.817 ± 0.11 | 0.696 ± 0.038 | 0.663 ± 0.076 | 0.722 ± 0.2 | 0.695 ± 0.2 | 0.699 ± 0.23 | 0.637 ± 0.17 | 0.631 ± 0.17
Hs578T, 1 µM | 0.7919 ± 0.0047 | 0.673 ± 0.014 | 0.638 ± 0.019 | 0.561 ± 0.016 | 0.514 ± 0.021 | 0.499 ± 0.026 | 0.488 ± 0.033 | 0.493 ± 0.03 | 0.496 ± 0.034
Hs578T, 10 µM | 0.819 ± 0.032 | 0.728 ± 0.022 | 0.745 ± 0.11 | 0.666 ± 0.12 | 0.644 ± 0.16 | 0.616 ± 0.17 | 0.628 ± 0.22 | 0.577 ± 0.17 | 0.608 ± 0.19
Hs578T, 100 µM | 0.84875 ± 0.00044 | 0.763 ± 0.025 | 0.753 ± 0.057 | 0.691 ± 0.047 | 0.652 ± 0.052 | 0.632 ± 0.075 | 0.611 ± 0.081 | 0.612 ± 0.093 | 0.604 ± 0.11
